In paper PMC7041745 one finds binding data, which are given here for two substances.

Protein sequences, listed by entry. Tags and fused reporters are not part of them.
UniProt O14744: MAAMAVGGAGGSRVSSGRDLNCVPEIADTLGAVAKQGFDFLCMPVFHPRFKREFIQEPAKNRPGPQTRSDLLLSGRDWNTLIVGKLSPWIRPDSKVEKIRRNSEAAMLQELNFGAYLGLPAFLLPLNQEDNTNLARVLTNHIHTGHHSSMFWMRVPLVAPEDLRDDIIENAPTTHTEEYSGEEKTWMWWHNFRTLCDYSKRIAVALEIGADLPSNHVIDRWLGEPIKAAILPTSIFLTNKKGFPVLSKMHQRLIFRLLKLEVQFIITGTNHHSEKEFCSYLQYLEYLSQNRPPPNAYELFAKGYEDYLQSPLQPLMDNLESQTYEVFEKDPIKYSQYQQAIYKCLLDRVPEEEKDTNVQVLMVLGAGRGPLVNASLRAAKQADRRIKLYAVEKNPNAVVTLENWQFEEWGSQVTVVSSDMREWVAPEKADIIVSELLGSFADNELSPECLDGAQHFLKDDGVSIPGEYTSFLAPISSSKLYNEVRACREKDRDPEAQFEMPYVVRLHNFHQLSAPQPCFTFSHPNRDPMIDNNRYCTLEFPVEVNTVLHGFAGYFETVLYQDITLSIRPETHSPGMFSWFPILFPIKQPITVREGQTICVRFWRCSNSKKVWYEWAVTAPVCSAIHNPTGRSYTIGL
UniProt P19474: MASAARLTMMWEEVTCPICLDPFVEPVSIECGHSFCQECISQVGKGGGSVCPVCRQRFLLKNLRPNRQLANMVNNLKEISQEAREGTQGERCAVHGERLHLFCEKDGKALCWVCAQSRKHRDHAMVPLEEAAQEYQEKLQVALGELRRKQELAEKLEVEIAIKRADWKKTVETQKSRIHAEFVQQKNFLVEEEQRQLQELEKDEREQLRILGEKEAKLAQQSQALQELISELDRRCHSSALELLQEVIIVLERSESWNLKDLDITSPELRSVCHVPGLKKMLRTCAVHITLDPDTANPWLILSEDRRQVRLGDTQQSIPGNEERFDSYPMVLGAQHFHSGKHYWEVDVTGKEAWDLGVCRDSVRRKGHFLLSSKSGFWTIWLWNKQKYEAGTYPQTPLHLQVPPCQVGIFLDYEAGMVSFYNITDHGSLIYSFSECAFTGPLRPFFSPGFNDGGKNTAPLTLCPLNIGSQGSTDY

Results are given in words; binding and its absence hold for the method and conditions named. Binding seen in cells or lysates may run through a third protein. Some results given as binding are weak or reduced against the parent protein; the word gives no strength.

The target of assay [1] is Myc-VN155-PRMT5 (UniProt O14744). Briefly: split reporter; BiFC: Myc-VN155-PRMT5 and HA-VC155-TRIM21 cotransfected with Cerulean into U2 OS cells for 48 h; cells fixed, reconstituted Venus seen by confocal microscopy.
For assay [2], the target named is Protein arginine methyltransferase 5 (PRMT5), endogenous in U2 OS cells (human (endogenous in U2 OS)) (UniProt O14744). The assay can be described thus: co-IP; endogenous proteins in U2 OS lysate; precleared extract incubated with 5 ug antibody against PRMT5 or IgG overnight at 4°C, protein A beads, five washes with lysis buffer, Western blot.

As for “HA-VC155-TRIM21 (from UniProt P19474 1-475)”, the binding result in assay [1] is given as “binds”.
Consider “TRIM21, endogenous in U2 OS cells (from UniProt P19474 1-475)”, for which, in assay [2], the binding entry is “binds”.
